Measured values published in paper doi:10.1101/2024.09.11.612445 (bioRxiv, 2024).
Numbering of substitutions follows the chain as printed. Results are given in words; binding and its absence hold for the method and conditions named. In cells and extracts the contact can be indirect. Here binding means that the protein was enriched with, or labelled near, the bait; the list need not be complete. For part of these data: No binding means not detected with the bait. For part of these data: Sequences can lack the tags named with a protein.

The chains behind the UniProt entries cited, without tags or fusion partners.
UniProt A5YKK6: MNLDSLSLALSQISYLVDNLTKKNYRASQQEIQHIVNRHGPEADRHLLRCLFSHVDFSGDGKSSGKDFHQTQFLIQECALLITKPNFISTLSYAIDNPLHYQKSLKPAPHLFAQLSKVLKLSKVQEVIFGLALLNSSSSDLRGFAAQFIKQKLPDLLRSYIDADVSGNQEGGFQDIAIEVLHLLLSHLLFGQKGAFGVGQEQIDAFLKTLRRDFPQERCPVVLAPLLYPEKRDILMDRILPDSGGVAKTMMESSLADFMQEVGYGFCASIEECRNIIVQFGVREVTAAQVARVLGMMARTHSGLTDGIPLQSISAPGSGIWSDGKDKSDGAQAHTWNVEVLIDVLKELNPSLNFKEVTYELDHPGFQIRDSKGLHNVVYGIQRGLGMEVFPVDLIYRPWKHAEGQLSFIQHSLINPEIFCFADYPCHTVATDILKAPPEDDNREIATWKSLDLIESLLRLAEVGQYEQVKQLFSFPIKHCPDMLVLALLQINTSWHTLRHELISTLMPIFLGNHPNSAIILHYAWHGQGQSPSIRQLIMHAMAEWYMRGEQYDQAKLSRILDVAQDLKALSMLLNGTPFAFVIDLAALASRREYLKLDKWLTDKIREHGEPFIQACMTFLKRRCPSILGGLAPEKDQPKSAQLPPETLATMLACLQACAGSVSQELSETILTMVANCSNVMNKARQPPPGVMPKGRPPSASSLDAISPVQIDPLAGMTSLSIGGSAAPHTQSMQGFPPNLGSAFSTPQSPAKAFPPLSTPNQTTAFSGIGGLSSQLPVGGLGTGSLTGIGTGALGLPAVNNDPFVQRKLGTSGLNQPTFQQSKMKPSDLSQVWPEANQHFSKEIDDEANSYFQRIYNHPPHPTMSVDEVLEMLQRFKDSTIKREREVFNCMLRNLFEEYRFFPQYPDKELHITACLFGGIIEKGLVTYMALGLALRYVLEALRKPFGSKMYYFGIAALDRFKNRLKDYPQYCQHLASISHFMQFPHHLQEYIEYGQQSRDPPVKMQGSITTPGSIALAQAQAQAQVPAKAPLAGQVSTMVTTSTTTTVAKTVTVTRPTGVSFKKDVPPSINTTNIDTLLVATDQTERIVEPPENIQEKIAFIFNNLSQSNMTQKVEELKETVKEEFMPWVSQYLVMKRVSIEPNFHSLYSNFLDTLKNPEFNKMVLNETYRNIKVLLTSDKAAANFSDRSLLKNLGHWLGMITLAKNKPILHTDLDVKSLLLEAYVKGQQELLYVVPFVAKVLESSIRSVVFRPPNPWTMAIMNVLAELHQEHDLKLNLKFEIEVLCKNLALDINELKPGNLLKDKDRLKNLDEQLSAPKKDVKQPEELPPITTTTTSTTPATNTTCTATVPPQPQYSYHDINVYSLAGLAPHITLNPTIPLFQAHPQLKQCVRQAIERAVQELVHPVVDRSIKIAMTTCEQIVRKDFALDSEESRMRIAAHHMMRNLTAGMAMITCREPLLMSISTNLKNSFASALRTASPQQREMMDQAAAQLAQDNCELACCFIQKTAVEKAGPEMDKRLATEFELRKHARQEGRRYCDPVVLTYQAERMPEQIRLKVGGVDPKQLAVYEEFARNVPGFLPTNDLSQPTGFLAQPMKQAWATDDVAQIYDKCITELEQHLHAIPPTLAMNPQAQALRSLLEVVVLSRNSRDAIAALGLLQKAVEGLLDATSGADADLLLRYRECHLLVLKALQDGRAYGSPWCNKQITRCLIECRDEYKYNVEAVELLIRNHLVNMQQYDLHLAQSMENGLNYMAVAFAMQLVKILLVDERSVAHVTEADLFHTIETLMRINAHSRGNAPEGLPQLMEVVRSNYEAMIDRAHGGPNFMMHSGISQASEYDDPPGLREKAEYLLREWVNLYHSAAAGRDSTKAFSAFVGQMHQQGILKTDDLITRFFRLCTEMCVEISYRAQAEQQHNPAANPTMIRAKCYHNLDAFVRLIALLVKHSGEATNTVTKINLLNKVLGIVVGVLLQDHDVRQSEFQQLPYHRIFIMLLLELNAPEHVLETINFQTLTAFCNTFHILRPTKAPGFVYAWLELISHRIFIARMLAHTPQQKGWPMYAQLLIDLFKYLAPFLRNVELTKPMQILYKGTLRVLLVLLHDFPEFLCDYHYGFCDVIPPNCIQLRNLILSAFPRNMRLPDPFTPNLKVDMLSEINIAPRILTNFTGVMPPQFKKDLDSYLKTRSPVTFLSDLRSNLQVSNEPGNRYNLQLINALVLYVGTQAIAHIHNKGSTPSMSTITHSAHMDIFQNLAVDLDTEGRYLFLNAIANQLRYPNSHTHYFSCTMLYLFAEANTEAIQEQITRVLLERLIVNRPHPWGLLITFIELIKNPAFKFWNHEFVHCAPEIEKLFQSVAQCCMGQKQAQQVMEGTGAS
UniProt Q9NZN8: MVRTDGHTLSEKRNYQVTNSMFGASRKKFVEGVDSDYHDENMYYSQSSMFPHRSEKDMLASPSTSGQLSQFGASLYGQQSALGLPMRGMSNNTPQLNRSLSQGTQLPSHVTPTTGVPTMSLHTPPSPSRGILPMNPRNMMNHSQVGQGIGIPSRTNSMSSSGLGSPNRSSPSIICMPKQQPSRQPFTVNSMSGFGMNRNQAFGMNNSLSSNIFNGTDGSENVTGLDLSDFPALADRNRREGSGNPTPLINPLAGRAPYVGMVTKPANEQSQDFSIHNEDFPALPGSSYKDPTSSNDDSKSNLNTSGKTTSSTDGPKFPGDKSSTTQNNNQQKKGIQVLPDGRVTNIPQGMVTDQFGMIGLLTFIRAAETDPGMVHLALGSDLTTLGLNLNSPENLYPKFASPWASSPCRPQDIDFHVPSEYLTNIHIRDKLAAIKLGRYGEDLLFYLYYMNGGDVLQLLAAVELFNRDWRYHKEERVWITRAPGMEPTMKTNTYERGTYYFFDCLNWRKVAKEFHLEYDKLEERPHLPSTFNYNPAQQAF
UniProt O75175: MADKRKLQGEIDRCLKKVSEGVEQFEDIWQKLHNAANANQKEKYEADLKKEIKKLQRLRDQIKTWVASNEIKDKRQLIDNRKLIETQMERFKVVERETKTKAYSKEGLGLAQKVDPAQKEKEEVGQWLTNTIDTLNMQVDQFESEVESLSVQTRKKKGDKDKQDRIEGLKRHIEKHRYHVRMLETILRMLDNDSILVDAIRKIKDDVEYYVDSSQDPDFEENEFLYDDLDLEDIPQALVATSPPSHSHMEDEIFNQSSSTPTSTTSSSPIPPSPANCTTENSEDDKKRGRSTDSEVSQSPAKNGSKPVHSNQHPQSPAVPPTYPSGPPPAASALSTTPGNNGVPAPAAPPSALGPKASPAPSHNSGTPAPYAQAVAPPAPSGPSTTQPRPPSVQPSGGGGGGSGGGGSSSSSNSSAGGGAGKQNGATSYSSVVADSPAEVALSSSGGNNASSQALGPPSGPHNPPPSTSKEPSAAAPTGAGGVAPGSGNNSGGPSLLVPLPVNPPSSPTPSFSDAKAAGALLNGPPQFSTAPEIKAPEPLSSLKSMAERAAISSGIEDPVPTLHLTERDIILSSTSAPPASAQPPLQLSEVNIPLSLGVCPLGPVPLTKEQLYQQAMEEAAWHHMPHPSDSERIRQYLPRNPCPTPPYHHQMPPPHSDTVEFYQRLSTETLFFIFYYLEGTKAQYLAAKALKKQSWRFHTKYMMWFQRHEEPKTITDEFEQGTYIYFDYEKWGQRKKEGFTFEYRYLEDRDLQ

Assays:
Assay in all cases: affinity purification with mass spectrometry
[1] = biological target: T1, YFP-ANKRD17 1950-2603 wild-type (human) (UniProt O75179)
T1 sequence: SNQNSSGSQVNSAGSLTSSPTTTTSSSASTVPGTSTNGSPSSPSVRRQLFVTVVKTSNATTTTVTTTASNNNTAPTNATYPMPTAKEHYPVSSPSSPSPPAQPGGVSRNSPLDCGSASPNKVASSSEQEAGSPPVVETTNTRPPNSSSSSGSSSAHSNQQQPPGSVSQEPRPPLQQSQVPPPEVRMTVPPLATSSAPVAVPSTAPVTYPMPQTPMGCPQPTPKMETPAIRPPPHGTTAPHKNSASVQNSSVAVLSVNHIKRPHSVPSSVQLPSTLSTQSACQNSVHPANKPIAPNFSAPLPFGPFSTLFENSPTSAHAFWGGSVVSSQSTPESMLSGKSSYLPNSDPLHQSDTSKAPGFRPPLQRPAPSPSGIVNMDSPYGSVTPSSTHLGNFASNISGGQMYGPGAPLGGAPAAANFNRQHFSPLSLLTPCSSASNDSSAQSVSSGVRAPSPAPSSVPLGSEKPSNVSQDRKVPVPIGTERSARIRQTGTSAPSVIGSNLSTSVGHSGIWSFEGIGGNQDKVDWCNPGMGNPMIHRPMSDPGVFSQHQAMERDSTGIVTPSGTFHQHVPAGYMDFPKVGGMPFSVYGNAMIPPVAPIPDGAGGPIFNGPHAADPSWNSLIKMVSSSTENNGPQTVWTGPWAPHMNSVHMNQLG

[2] = biological target: T2, YFP-ANKRD17 1950-2603 motif mutant (AAAAAAA 2425-2431) (human) (UniProt O75179)
T2 sequence: T1 sequence with V476A, P477A, I478A, G479A, T480A, E481A, R482A

[3] = biological target: YFP-tagged WDR33 1-525 motif mutant (all three motifs mutated) (human) (UniProt Q9C0J8)
[4] = biological target: T3, YFP-tagged WDR33 1-525 wild-type (human) (UniProt Q9C0J8)
T3 sequence: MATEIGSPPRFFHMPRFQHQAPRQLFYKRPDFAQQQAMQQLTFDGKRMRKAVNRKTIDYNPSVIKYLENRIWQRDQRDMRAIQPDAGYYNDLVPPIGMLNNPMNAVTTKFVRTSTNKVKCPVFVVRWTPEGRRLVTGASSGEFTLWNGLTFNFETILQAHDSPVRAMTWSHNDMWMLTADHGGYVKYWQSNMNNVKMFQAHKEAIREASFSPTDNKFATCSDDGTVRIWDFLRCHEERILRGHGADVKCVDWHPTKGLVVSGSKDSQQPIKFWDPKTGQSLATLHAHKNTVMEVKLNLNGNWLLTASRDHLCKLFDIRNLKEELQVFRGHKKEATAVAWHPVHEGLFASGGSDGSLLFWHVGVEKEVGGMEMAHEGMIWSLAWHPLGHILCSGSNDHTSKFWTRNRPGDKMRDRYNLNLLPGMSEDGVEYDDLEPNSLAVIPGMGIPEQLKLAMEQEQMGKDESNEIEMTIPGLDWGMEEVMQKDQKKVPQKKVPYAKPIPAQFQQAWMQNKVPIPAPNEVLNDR

[5] = biological target: T4, YFP-tagged full length CPSF1 wild-type (Cleavage and polyadenylation specificity factor subunit 1) (human) (UniProt Q10570)
T4 sequence: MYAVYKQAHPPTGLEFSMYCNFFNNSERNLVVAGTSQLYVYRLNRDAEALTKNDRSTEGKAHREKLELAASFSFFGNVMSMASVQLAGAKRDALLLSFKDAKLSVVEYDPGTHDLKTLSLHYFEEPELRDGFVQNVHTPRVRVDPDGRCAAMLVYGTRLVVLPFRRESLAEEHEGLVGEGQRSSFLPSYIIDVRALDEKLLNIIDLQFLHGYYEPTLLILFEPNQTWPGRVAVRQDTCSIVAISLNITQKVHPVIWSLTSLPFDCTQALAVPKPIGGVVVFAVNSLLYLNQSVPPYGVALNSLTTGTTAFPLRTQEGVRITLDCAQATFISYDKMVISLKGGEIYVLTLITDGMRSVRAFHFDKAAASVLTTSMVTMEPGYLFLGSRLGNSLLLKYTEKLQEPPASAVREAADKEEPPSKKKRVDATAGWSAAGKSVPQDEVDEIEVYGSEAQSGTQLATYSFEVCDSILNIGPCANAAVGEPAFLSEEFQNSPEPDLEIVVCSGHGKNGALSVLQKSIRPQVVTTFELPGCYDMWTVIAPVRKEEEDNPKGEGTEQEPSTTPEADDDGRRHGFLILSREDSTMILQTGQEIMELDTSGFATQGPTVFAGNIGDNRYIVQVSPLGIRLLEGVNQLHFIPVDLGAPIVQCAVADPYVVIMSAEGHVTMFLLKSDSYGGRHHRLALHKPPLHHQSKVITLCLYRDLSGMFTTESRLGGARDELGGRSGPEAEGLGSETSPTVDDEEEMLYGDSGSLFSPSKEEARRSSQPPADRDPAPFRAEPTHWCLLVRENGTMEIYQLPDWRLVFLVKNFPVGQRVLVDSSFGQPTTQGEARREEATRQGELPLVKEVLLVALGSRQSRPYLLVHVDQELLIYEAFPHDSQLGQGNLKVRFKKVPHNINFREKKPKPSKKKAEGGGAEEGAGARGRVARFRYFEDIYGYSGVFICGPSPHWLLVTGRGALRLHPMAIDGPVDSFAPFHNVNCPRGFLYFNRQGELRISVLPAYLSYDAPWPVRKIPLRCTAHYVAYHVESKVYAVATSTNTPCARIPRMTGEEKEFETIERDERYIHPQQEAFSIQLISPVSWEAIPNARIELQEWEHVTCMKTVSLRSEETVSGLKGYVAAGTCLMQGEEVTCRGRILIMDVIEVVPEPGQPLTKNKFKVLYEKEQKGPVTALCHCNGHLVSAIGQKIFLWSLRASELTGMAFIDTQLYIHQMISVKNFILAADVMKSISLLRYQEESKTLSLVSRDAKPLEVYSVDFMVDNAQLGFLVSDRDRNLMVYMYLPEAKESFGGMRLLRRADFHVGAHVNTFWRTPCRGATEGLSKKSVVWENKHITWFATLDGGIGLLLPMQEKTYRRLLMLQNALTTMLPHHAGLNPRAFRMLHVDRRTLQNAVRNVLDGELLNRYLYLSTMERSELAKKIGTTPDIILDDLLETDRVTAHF

## CNOT1, endogenous (from UniProt A5YKK6 1-2376)
[1]
  binding: binds
[2]
  binding: no binding

## CNOT2, endogenous (from UniProt Q9NZN8 1-540)
[1]
  binding: binds
[2]
  binding: no binding

## CNOT3, endogenous (from UniProt O75175 1-753)
[1]
  binding: binds
[2]
  binding: no binding

B1: Cleavage stimulation factor subunit 3 (CSTF3), endogenous (protein, UniProt Q12996 1-717)
chain: MSGDGATEQAAEYVPEKVKKAEKKLEENPYDLDAWSILIREAQNQPIDKARKTYERLVAQFPSSGRFWKLYIEAEIKAKNYDKVEKLFQRCLMKVLHIDLWKCYLSYVRETKGKLPSYKEKMAQAYDFALDKIGMEIMSYQIWVDYINFLKGVEAVGSYAENQRITAVRRVYQRGCVNPMINIEQLWRDYNKYEEGINIHLAKKMIEDRSRDYMNARRVAKEYETVMKGLDRNAPSVPPQNTPQEAQQVDMWKKYIQWEKSNPLRTEDQTLITKRVMFAYEQCLLVLGHHPDIWYEAAQYLEQSSKLLAEKGDMNNAKLFSDEAANIYERAISTLLKKNMLLYFAYADYEESRMKYEKVHSIYNRLLAIEDIDPTLVYIQYMKFARRAEGIKSGRMIFKKAREDTRTRHHVYVTAALMEYYCSKDKSVAFKIFELGLKKYGDIPEYVLAYIDYLSHLNEDNNTRVLFERVLTSGSLPPEKSGEIWARFLAFESNIGDLASILKVEKRRFTAFKEEYEGKETALLVDRYKFMDLYPCSASELKALGYKDVSRAKLAAIIPDPVVAPSIVPVLKDEVDRKPEYPKPDTQQMIPFQPRHLAPPGLHPVPGGVFPVPPAAVVLMKLLPPPICFQGPFVQVDELMEIFRRCKIPNTVEEAVRIITGGAPELAVEGNGPVESNAVLTKAVKRPNEDSDEDEEKGAVVPPVHDIYRARQQKRIR
[3]
  binding: no binding
[4]
  binding: binds
[5]
  binding: binds

B2: Cleavage Stimulation Factor complex subunit CSTF1, endogenous (protein, UniProt Q05048 1-431)
chain: MYRTKVGLKDRQQLYKLIISQLLYDGYISIANGLINEIKPQSVCAPSEQLLHLIKLGMENDDTAVQYAIGRSDTVAPGTGIDLEFDADVQTMSPEASEYETCYVTSHKGPCRVATYSRDGQLIATGSADASIKILDTERMLAKSAMPIEVMMNETAQQNMENHPVIRTLYDHVDEVTCLAFHPTEQILASGSRDYTLKLFDYSKPSAKRAFKYIQEAEMLRSISFHPSGDFILVGTQHPTLRLYDINTFQCFVSCNPQDQHTDAICSVNYNSSANMYVTGSKDGCIKLWDGVSNRCITTFEKAHDGAEVCSAIFSKNSKYILSSGKDSVAKLWEISTGRTLVRYTGAGLSGRQVHRTQAVFNHTEDYVLLPDERTISLCCWDSRTAERRNLLSLGHNNIVRCIVHSPTNPGFMTCSDDFRARFWYRRSTTD
[3]
  binding: no binding
[4]
  binding: binds
[5]
  binding: binds
